# According to the supplement of paper PMC12889115:
# The other results are listed elsewhere or left out. These are raw signals, not scaled to a control.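 In the initial screen, polymyxin B was used at a concentration that permeabilizes Salmonella's outer membrane but not its inner membrane. Maximum growth was set by DMSO wells with or without polymyxin B. Since plates varied, data were ranked per plate, and compounds giving the lowest OD600 advanced as hits.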
# System: Salmonella enterica serovar Typhimurium SL1344
# Experiment: bacterial growth OD600 after 18 h with compound and polymyxin B; higher = more bacterial growth (less inhibition)
# Conditions: 50 µM, Mueller-Hinton broth
Compound,bacterial growth OD600 (polymyxin B 1 µg/mL),bacterial growth OD600 (polymyxin B 0.75 µg/mL)
COc1ccc(Cc2noc(CN(C)Cc3cccc(-n4cccn4)c3)n2)cc1OC,0.958,
Cc1nonc1C(=O)N(CC1CCN(Cc2ccccc2F)CC1)CC1CCCO1 (configuration not stated),0.989,
COCC(=O)Nc1cnn(-c2cccc(C(=O)N3CCN(c4cccc(C(F)(F)F)c4)CC3)c2)c1,,0.008
O=C(CC1C(=O)NCCN1Cc1cccc(C(F)(F)F)c1)NCCOc1cccnc1 (configuration not stated),0.797,
CN1CCC(N(C)C(=O)CC(c2cccc(O)c2)c2ccccc2Cl)CC1 (configuration not stated),0.894,
c1ccc(CCCc2noc(-c3ccc(NCC4COCCO4)nc3)n2)cc1 (configuration not stated),,0.499
CCn1cc(CNC2CCCc3nc(-c4cccnc4)ncc32)c(C)n1 (configuration not stated),0.797,
COCc1ccc(C(=O)NCc2c(C)ncc3c2CCN(C(=O)c2cccc(-n4cccn4)c2)C3)o1,,0.879
CN(Cc1cnccn1)Cc1cn(Cc2ccccc2)nc1-c1ccc2c(c1)OCO2,0.539,
CCOC(=O)C1(Cc2ccccc2F)CCCN(C(=O)c2ccc(OC)nc2OC)C1 (configuration not stated),0.776,
COCCN1CC(C(=O)NCc2ccc3sccc3c2)CCC1=O (configuration not stated),0.766,
COCCN1C(=O)CC(CC(=O)N(C)Cc2cccc3ccccc23)(c2ccccc2F)C1=O (configuration not stated),,0.005
CCOC(=O)C1(CCCc2ccccc2)CCN(C(=O)C2CCOC(C)(C)C2)CC1 (configuration not stated),0.756,
CCOC(=O)C1(Cc2ccccc2C(F)(F)F)CCN(C(=O)C2CC23CCC3)CC1 (configuration not stated),0.723,
NC(=O)C1(C(=O)N2CCCC(CCc3cccc(F)c3)C2)CC1 (configuration not stated),,0.802
COc1ccc2ccc(OCc3nc(C(=O)NCC(C)C)co3)cc2c1,0.672,

Compound,bacterial growth OD600 (polymyxin B 1 µg/mL),bacterial growth OD600 (polymyxin B 0.75 µg/mL)
CC(C)CC(=O)Nc1ccnn1C1CCN(Cc2cccc3cccnc23)CC1,,0.847
COc1ccc2c(c1)OC(C)CN(Cc1cc(OC)c3c(c1)OCO3)C2 (configuration not stated),,0.711
c1ccc(-c2n[nH]c3c2CN(Cc2ccc4c(c2)CCO4)CC3)cc1,,0.765
CC(CNC(=O)c1cn(Cc2ccccc2F)nn1)Oc1cccnc1 (configuration not stated),0.969,
Cc1cccc(CN2CCCC3(CCN(S(=O)(=O)C(C)C)C3)C2=O)c1 (configuration not stated),0.881,
CN(Cc1ccccc1)C(=O)CCC1CCN(C(=O)CCN2CCCCO2)CC1,0.93,
CCOC(=O)CN(C)Cc1cn(-c2ccccc2)nc1-c1cccc(OC)c1,0.79,
Cc1noc(C)c1CC(=O)NC1CC(=O)N(Cc2cccc3ccccc23)C1 (configuration not stated),0.923,
CC(=O)c1ccc(C(=O)N2CCc3[nH]nc(-c4ccccc4)c3C2)s1,,0.579
CCCCNC(=O)c1cn(C2CCCCC2)cc(C(=O)N(C)CCc2ccccn2)c1=O,,0.783
Cc1ccc2nccc(C(=O)N3CCCC(CO)(CCOc4ccccc4)C3)c2c1 (configuration not stated),1.14,
O=C(NC1CCC1)C1CCCN(C2CCN(C3Cc4ccccc4C3)CC2)C1 (configuration not stated),,0.877
Cc1ccsc1C(=O)NC1CCCc2nc(N3CCC(CO)CC3)ncc21 (configuration not stated),,0.816
Cc1ccc(NC2CCCN(C(=O)c3n[nH]c4ccccc34)C2)cc1C (configuration not stated),0.687,
CN(C(=O)C1CC1)C(Cc1ccc(F)cc1F)C1CCN(C(=O)/C=C/c2ccccc2)CC1 (configuration not stated),,0.006
COCCn1c(-c2ccccn2)nc2cc(NC(C)=O)cc(C(=O)N(Cc3ccccc3)CC3CC3)c21,,0.742

# As entered above:
# For bacterial growth OD600 (polymyxin B 1 µg/mL), Cc1noc(C)c1CC(=O)NC1CC(=O)N(Cc2cccc3ccccc23)C1 (configuration not stated) is listed with 0.923
# For bacterial growth OD600 (polymyxin B 0.75 µg/mL), COCCn1c(-c2ccccn2)nc2cc(NC(C)=O)cc(C(=O)N(Cc3ccccc3)CC3CC3)c21 is listed with 0.742
